According to patent US20240368668A1, “SUBSTRATES AND BIOMARKERS OF ADAMTS7” (The Broad Institute, Inc., priority 2021, published 2024):

Experiments:
mouse ADAMTS7 [1] = assay: TMT10 TAILS N-terminomics, HUVEC experiment (process replicates, trypsin/AspN digest); assay type: cell-based, human; conditions: for ATS7_HUVEC_TAILS_frxns_mATS7inDB_AspGluN.total Intensity: HUVEC TAILS experiment, total MS intensity of the N-terminal (neo-N-terminal) peptide identified by TAILS_id; for HUVEC TAILS.total Intensity: HUVEC experiment, total intensity of the N-terminal (TAILS) peptide
Excerpt: ADAMTS7 Expression, Cell Culture and Preparation of the Secreted Proteins—Full-length mouse Adamts7 1-1857 (Uniprot Q68SA9, WT or E373Q catalytic mutant) with a carboxyl terminal 3xFLAG tag was used to generate custom adenoviruses as previously described. Adeno-CMV-Luciferase (Ad-Luc) from Vector Biolabs was used as a negative control. Human Coronary Artery Smooth Muscle Cells (HCA-SMC) were obtained from Lonza and expanded in Lonza SmGM-2 media in 15 cm tissue culture plates. Twenty-four hours before media collection, near confluent plates were transduced with 50 MOI adenovirus and switched to Lonza Basal SM media with volumes of 20 ml per 15 cm plate. Expression of the Flag tagged ADAMTS7 was confirmed from the media using western blot and detected using the anti-Flag M2-HRP antibody (Sigma, A8592). Collected media was processed by adding protease inhibitors (1 mM EDTA and 1 mM PMSF) and clarified by 500 g×5 min spin at 4 C to pellet cell debris. Cell media supernatants were then passed through a 0.22 um filter and kept chilled. Processed media was then concentrated 50-100× using 3 kDa Centricon Plus-70 filter unit, spun at 3,500 g×60 min at 4 C. Approximately 10% of the processed, concentrated media was set aside for total secretome proteolytic analysis. The remaining 90% of the processed, concentrated media was buffer exchanged into 50 mM HEPES pH 8.0, 150 mM NaCl (2×50 ml) using the 3 kDa Centricon Plus-70 filter unit and concentrated to >2 mg/ml to serve as input for the TAILS experiment. Secretome and TAILS input samples were stored at −80° C.
For the first experiment, referred to as SMC1, 120 ml of media from 6×15 cm dishes was pooled from each condition (Luc, WT, EQ) and processed to produce three separate inputs for the TAILS experiment. Luc, WT and EQ inputs from the SMC1 experiment were each divided into triplicate 400 ug samples to generate technical replicate TAILS data. For the second experiment, referred to as SMC2, media was processed separately in triplicate for each condition (Luc1, Luc2, Luc3, WT1, WT2, WT3, EQ1, EQ2, EQ3) using 60 ml of media from 3×15 cm dishes for each process replicate. Inputs from the SMC2 experiment used process replicates of 300 ug each to generate TAILS data. The third experiment used input from cultured Human umbilical vein endothelial cells (HUVEC) from Lifeline Cell Technology grown in VascuLife Media and transduced in Lifeline Basal EC (+bFGF2 10 ng/ml). The HUVEC experiment used the same strategy as the SMC2 experiment, with 40 ml of media from 2×15 cm dishes for each process replicate and used 200 ug each to generate TAILS data. Inputs for process replicate experiments were restricted to the lowest concentration from the 9 parallel samples for SMC2 or HUVEC.
TMT10 isotopic labeling and negative selection of non-labeled peptides-Sample preparation was performed based on the TAILS protocol from the Overall lab with some modifications. From a single experiment, nine parallel protein samples in 50 mM HEPES pH 8.0, 150 mM NaCl were separately denatured with guanidinium chloride (Sigma, G4505) to reach a final concentration of 2.5M guanidinium chloride and 250 mM HEPES and incubated at 65° C. for 15 min. Reduction was achieved through addition of tris(2-carboxylethyl) phosphine (TCEP) at a final concentration of […] and incubated at 65° C. for 45 min. Alkylation reaction was performed with addition of iodoacetamide (IAA, Sigma, A3221) to a final concentration of 10 mM IAA for 15 min at room temperature in the dark. Following denaturation, reduction and alkylation steps, ten percent of each of the nine parallel protein samples was removed and combined to serve as a pooled reference. Isobaric tags were added to free amine groups using the TMT10plex Isobaric Mass Tagging Kit (ThermoFisher, 90113) with TMT channels randomly assigned to the nine samples and TMT 131 assigned to the pooled reference. […]

mouse ADAMTS7 [2] = assay: TMT10 TAILS N-terminomics, SMC2 experiment (process replicates, trypsin/AspN digest); assay type: cell-based; conditions: for SMC2 TAILS.total Intensity: SMC2 experiment, total intensity of the N-terminal (TAILS) peptide
Outline: (§1)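 Full-length mouse ADAMTS7 (WT or E373Q mutant, C-terminal 3xFLAG) or luciferase was transduced via adenovirus, 50 MOI, into HCA-SMC (SMC1, SMC2) or HUVEC. SMC1: pooled media, technical triplicates 400 ug; SMC2: process triplicates 300 ug; HUVEC: process triplicates 200 ug, bFGF2 10 ng/ml.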

mouse ADAMTS7 [3] = assay: TMT10 TAILS N-terminomics, SMC1 experiment (Ad-mADAMTS7 WT vs EQ vs Luc, technical replicates, trypsin digest); assay type: cell-based; conditions: for SMC1 TAILS.total Intensity: TAILS HC Overlap, total intensity of the peptide
Outline: as §1

[4] = SMC rd2 TAILS, AspGluN search, total spectral intensity of the N-terminal peptide (TAILS_id = gene_StartAA cleavage site)
[5] = TAILS N-terminal peptide identified in SMC conditioned media (scale-up, fractions), mouse ADAMTS7, value listed per TAILS_id (protein_StartAA)
[6] = total intensity of the N-terminal peptide spectra, SMC rd2 TAILS fractions, AspN/GluC search

Substance | ATS7_HUVEC_TAILS_frxns_mATS7inDB_AspGluN.total Intensity (mouse ADAMTS7 [1]) | HUVEC TAILS.total Intensity (mouse ADAMTS7 [1]) | SMC2 TAILS.total Intensity (mouse ADAMTS7 [2]) | ATS7_SMC_rd2_TAILS_frxns_matS7inDB_AspGluN_retry.totalIntensity (mouse ADAMTS7 [2]; [4]) | ATS7_SMC_rd2_TAILS_frxns_matS7inDB_AspGluN_retry.totalIntensity (mouse ADAMTS7 [2]; SMC rd2 TAILS, AspGluN digest, total MS intensity of the N-terminal peptide at the given StartAA) | SMC1 TAILS.total Intensity (mouse ADAMTS7 [3]) | TAILS_SMC_Scaleup_fxns_mATS7i (mouse ADAMTS7 [3]; [5]) | TAILS_SMC_Scaleup_fxns_mATS7i (mouse ADAMTS7 [3]; TAILS N-terminal peptide signal, SMC scale-up fractions, mouse ADAMTS7, label = TAILS_id (gene symbol_StartAA)) | ATS7_SMC_rd2_TAILS_frxns_matS7inDB_AspGluN_retry.totalIntensity (mouse ADAMTS7 [2]; [6]) | TAILS_SMC_Scaleup_fxns_mATS7i (mouse ADAMTS7 [3]; intensity of the N-terminal (TAILS) peptide in SMC scale-up TAILS experiment, fractions, peptide identified by TAILS_id (gene symbol_StartAA))
FSTL1_290 (LQKHQETA; listed as Homo sapiens) | 1.45E+08 | 1.45E+08 | 5.17E+08 | 5.17E+08 |  |  |  |  |  | 
SPOCK1_27 (LAGGAGPNHGNFL; listed as Homo sapiens) | 1.92E+09 | 1.92E+09 | 5.00E+08 |  | 5.00E+08 |  |  |  |  | 
SERBP1_56 (QAAAQTNSNAAGKQLR; listed as Homo sapiens) | 4.86E+07 | 4.86E+07 |  |  |  | 9.32E+07 | 9.32E+07 |  |  | 
NID2_291 (HSSVPLGR; listed as Homo sapiens) | 5.96E+08 | 5.96E+08 | 6.67E+09 | 6.67E+09 |  | 2.94E+09 | 2.94E+09 |  |  | 
EFEMP1_125 (VAGPEMQTGR; listed as Homo sapiens) | 9.33E+10 | 9.33E+10 | 7.46E+09 |  |  | 2.03E+09 |  | 2.03E+09 | 7.46E+09 | 
LTBP3_208 (FLVPLGPGQISA; listed as Homo sapiens) | 4.31E+07 | 4.31E+07 | 1.77E+07 | 1.77E+07 |  |  |  |  |  | 
FN1_1805 (LIGTQSTAIPAPT; listed as Homo sapiens) | 4.74E+10 | 4.74E+10 | 5.10E+10 |  |  |  |  |  | 5.10E+10 | 
FN1_607 (SSSGPVEVFIT; listed as Homo sapiens) | 4.88E+09 | 8.05E+09 | 1.24E+11 |  |  |  |  |  | 1.24E+11 | 
FN1_1780 (LQGLRPGSEYTVSVVALH; listed as Homo sapiens) | 2.82E+09 | 2.82E+09 | 4.09E+09 |  |  |  |  |  | 4.09E+09 | 
ECM1_108 (QEAVPLQK; listed as Homo sapiens) | 1.47E+08 | 1.47E+08 | 2.41E+09 |  |  |  |  |  | 2.41E+09 | 
NUCB1_389 (LQQAVLHMEQR; listed as Homo sapiens) | 4.02E+08 | 4.02E+08 |  |  |  | 1.01E+08 | 1.01E+08 |  |  | 
LOX_125 (FQAGYSTSR; listed as Homo sapiens) | 1.50E+09 | 1.50E+09 | 1.92E+10 | 1.92E+10 |  |  |  |  |  | 
LTBP2_502 (LVENSVETRPPPWLPASPGHSLW; listed as Homo sapiens) | 3.30E+07 | 3.30E+07 | 2.73E+08 | 2.73E+08 |  |  |  |  |  | 
THBS2_290 (LSENLKR; listed as Homo sapiens) | 1.83E+08 | 1.83E+08 |  |  |  | 4.15E+08 |  |  |  | 4.15E+08
